The list shows a part of the results.
Legend:
Assay in all cases: log2 fold change, soluble protein after heating vs DMSO (PISA); higher = thermal stabilisation; K562 cells, 10 uM, 30 min; active = over 0.2 and 3.5 SD of the protein, either way, in both replicates (recomputed)
[1] = compound: C#Cc1cccc(Nc2ncnc3cc(OCCOC)c(OCCOC)cc23)c1 [erlotinib]
Summary of the method: (§1)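 Thermal stability values are relative to control samples and come from duplicates. They are expressed as log2 fold changes. For measurement, K562 cells (2×10^6 cells/mL) received 10 μM compound for 30 min, and aliquots were heated for 3 min over 48°C-58°C, pooled, and extracted at 4°C in PBS with 0.5% NP-40. Soluble protein, the supernatant after 21,000xg for 90 min, was quantified by TMTpro 16plex LC-MS/MS with equalised channel sums.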

Sequences of proteins named here, by UniProt entry; tags and fusion partners are left off. A change or cut given only in a name is not applied to a line headed by its entry.
UniProt Q9UHY1: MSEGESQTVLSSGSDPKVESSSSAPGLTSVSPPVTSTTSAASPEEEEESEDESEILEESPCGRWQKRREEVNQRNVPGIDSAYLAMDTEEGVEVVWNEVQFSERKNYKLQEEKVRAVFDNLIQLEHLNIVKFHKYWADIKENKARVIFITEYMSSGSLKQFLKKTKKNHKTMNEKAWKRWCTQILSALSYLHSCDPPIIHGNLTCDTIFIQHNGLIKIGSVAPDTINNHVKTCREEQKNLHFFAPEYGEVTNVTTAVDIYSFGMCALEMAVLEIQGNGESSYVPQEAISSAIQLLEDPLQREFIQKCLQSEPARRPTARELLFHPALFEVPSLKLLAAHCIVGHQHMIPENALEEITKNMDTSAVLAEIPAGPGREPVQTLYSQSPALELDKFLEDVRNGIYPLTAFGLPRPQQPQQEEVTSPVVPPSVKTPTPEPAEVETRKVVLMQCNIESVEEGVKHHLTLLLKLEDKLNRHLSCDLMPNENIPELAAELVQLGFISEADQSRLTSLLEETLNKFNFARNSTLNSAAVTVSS
UniProt P15559, whole entry, looked up: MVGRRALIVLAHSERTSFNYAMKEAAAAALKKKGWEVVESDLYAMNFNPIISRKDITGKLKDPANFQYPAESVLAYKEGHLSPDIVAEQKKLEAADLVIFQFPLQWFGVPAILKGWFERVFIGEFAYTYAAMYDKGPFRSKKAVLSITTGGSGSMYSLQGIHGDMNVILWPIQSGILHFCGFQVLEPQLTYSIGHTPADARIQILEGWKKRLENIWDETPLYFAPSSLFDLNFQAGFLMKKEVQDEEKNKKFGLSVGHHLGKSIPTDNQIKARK
UniProt Q8TDX7: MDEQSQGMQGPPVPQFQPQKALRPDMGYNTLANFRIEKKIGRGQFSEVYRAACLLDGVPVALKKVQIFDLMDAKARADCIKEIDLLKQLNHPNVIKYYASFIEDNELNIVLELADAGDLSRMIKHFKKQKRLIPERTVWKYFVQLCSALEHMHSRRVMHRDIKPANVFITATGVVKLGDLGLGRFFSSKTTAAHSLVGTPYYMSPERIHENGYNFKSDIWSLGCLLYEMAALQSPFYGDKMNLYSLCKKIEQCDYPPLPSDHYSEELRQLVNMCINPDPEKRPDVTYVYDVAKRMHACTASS
UniProt P08651, whole entry, looked up: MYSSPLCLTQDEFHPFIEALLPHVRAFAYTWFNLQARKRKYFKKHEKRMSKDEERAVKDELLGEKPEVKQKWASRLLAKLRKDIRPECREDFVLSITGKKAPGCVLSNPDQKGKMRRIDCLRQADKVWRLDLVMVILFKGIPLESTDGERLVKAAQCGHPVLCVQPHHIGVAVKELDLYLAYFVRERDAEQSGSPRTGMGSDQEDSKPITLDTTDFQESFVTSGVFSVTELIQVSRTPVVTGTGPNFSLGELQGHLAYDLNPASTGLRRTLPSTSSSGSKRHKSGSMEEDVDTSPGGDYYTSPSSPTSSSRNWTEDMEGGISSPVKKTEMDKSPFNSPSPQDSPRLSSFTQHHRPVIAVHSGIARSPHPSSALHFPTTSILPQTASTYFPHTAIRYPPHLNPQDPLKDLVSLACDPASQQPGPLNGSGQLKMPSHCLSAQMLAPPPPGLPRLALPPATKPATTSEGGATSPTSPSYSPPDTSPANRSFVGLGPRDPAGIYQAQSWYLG
UniProt O60524: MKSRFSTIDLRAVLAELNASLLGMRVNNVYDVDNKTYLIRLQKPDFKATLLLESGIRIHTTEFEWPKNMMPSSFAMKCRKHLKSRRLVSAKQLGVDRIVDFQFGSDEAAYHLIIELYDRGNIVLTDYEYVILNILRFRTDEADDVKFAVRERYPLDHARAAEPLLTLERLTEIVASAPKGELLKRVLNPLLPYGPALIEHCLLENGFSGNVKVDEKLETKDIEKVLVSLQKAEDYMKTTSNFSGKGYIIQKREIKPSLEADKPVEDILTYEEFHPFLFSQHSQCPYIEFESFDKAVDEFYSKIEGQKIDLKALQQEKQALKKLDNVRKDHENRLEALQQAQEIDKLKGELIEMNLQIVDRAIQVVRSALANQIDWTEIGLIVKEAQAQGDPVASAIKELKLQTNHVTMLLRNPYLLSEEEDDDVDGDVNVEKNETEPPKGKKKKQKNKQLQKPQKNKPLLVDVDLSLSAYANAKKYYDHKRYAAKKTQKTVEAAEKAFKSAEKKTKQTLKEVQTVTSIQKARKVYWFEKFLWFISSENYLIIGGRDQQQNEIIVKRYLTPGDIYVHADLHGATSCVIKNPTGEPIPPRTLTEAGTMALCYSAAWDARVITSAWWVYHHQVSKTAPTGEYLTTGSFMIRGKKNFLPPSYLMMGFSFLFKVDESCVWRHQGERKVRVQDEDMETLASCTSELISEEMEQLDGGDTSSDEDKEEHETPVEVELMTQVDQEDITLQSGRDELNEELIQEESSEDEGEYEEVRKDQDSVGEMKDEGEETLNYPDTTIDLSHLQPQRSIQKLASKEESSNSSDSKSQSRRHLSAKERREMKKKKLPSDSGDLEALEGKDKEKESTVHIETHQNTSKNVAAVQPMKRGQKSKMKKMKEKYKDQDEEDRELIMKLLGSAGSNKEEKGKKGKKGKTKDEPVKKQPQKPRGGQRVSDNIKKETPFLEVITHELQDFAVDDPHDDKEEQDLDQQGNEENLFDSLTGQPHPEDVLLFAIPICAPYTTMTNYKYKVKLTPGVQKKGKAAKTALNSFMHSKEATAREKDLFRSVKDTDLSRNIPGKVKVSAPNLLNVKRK
UniProt Q9Y314: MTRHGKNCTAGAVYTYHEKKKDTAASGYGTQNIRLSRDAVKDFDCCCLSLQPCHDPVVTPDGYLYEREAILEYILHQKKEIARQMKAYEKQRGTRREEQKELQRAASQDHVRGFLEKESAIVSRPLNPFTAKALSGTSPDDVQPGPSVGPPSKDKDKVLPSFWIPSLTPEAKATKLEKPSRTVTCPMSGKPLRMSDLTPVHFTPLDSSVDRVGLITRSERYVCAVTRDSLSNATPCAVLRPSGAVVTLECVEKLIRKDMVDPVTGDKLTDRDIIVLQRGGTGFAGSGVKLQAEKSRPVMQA
UniProt Q16656: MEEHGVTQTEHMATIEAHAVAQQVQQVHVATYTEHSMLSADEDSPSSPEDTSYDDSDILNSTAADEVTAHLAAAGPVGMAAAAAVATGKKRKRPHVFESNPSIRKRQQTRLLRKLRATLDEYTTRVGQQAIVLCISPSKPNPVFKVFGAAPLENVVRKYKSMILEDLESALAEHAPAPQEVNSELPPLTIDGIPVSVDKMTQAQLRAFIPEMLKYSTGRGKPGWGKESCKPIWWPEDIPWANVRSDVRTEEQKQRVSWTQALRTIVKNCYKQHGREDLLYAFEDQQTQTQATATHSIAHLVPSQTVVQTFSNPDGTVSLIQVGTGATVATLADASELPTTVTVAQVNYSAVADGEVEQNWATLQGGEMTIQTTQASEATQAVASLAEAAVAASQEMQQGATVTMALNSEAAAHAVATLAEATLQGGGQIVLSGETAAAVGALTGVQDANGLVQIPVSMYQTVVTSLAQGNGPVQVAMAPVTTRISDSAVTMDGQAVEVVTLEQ
UniProt Q9UNZ2: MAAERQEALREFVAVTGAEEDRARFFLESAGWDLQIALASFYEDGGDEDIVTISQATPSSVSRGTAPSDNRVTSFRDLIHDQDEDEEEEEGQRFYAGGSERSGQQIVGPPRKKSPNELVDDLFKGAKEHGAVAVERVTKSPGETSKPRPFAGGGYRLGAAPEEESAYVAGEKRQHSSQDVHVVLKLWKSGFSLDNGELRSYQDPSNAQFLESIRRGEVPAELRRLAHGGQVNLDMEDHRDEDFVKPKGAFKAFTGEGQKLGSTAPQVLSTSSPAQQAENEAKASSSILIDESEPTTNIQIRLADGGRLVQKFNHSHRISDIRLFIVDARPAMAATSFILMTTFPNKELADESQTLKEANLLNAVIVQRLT
UniProt P06748, whole entry, looked up: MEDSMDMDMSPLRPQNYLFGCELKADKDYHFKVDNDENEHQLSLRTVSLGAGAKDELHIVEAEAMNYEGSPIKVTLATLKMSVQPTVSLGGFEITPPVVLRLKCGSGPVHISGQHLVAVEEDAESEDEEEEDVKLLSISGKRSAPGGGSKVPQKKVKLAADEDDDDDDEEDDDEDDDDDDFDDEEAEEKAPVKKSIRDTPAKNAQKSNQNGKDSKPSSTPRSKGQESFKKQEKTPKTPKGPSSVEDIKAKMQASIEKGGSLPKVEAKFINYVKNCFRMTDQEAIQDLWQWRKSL
UniProt P24468: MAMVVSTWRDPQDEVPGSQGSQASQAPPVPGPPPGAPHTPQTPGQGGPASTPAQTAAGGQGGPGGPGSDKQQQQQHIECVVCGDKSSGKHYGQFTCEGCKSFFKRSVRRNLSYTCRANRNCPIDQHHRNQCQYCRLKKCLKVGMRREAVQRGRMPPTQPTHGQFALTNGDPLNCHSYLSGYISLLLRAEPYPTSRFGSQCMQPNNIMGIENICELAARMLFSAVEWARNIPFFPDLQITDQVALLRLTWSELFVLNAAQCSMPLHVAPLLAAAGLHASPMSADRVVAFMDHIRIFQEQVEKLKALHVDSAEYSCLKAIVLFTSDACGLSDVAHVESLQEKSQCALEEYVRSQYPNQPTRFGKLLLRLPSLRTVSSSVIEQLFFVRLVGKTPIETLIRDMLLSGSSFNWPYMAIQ
UniProt Q15738: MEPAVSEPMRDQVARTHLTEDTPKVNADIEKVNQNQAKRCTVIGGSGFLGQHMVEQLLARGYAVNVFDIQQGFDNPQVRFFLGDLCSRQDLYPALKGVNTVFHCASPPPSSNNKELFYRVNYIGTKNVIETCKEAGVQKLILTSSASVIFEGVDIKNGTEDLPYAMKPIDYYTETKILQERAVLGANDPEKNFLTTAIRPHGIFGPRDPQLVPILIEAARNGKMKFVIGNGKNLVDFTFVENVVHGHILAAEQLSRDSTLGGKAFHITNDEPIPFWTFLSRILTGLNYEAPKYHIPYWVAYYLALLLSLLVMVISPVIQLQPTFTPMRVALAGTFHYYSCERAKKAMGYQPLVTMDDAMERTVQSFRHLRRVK
UniProt Q96IV0: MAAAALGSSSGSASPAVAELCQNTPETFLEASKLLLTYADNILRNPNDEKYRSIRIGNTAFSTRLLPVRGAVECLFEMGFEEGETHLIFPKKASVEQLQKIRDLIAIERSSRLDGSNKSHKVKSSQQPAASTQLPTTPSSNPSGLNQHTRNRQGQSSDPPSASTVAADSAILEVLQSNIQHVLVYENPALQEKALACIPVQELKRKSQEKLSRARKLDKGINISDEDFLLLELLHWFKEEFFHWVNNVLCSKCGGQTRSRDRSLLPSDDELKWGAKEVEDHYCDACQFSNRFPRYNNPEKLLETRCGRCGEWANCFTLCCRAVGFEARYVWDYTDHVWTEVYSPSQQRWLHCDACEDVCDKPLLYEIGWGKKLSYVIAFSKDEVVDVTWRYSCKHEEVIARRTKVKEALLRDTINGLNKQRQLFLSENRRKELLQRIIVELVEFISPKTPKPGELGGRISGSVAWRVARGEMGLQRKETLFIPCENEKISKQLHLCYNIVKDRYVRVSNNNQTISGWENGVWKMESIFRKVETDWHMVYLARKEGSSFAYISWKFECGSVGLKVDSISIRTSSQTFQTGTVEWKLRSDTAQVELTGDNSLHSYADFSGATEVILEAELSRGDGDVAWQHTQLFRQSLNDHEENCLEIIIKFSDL
UniProt P15531, whole entry, looked up: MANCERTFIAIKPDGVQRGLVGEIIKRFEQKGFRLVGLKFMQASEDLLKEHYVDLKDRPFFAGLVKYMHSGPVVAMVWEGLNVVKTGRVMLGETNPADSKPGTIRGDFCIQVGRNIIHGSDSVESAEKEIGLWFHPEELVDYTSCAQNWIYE
UniProt Q8TAT6: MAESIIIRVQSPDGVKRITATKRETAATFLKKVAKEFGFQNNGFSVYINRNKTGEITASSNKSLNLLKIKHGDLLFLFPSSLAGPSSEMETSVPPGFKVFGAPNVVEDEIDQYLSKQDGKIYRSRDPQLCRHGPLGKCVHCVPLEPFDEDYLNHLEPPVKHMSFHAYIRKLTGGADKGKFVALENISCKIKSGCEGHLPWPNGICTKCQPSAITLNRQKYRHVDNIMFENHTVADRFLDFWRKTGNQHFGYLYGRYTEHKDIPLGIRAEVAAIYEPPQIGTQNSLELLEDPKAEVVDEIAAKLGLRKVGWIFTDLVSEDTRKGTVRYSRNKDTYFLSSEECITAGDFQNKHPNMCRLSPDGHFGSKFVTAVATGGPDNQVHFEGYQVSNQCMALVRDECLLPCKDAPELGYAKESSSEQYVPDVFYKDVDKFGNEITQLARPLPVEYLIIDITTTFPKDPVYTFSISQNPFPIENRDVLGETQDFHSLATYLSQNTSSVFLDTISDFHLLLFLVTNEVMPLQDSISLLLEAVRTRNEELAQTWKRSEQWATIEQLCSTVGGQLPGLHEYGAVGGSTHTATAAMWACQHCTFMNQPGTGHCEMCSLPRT

[2] = compound: C/C(=N\NC(=O)C1=CC(=CC=C1)S(=O)(=O)N2CCOCC2)/C3=C(C=CC(=C3)Cl)O
Summary of the method: as §1

[3] = compound: C1=CC(=C(C=C1Cl)C2=NC3=NC=CN=C3C(=N2)NC4=CC=NC=C4)F
Summary of the method: as §1

[4] = compound: C1=CC(=CC=C1C2=NC3=C(N2)C=C(C=C3)C(=O)N)OC4=CC=C(C=C4)Cl
Summary of the method: as §1

[5] = compound: C1=CC2=C(C=CC(=C2)/C=C\3/C(=O)NC(=NCC4=CC=CS4)S3)N=C1
Summary of the method: as §1

[6] = compound: C1=CC2=NC=CN=C2C=C1/C=C/3\C(=O)NC(=O)S3
Summary of the method: as §1

[7] = compound: C1=CC=C(C=C1)C2=NC(=C(N2)C3=CC=NC=C3)C4=CC(=C(C=C4)Cl)O
Summary of the method: as §1

[8] = compound: C1=CC=C2C(=C1)C3=NNC4=CC=CC(=C43)C2=O
Summary of the method: as §1

[9] = compound: C1CCN(C1)C(=O)NC2=CC=CC(=C2)NC3=NC=C(C(=N3)NCCC4=CN=CN4)Br
Summary of the method: as §1

[10] = compound: C1CN(CCC1(CC2=CC=C(C=C2)Cl)N)C3=NC=NC4=C3C=CN4
Summary of the method: as §1

| Target | log2 fold change [1] | log2 fold change [2] | log2 fold change [3] | log2 fold change [4] | log2 fold change [5] | log2 fold change [6] | log2 fold change [7] | log2 fold change [8] | log2 fold change [9] | log2 fold change [10] |
| --- | --- | --- | --- | --- | --- | --- | --- | --- | --- | --- |
| NRBP1 (UniProt Q9UHY1) | inactive: -0.011 | inactive: 0.081 | inactive: 0.027 | inactive: -0.006 | inactive: 0.002 | inactive: 0.045 | inactive: -0.007 | inactive: 0.014 | inactive: -0.04 | inactive: 0.005 |
| NQO1 (UniProt P15559) | inactive: -0.064 | inactive: 0.037 | inactive: 0.089 | inactive: -0.002 | inactive: -0.06 | inactive: -0.005 | inactive: -0.014 | active: 0.269 | inactive: -0.015 | inactive: 0.065 |
| NEK7 (UniProt Q8TDX7) | inactive: 0.022 | inactive: 0 | inactive: 0.021 | inactive: -0.003 | inactive: 0.073 | inactive: 0.013 | inactive: 0.01 | inactive: -0.002 | inactive: 0.013 | inactive: 0.141 |
| NFIC (UniProt P08651) | inactive: -0.027 | inactive: -0.057 | inactive: -0.071 | inactive: 0.032 | inactive: 0.038 | inactive: -0.009 | inactive: -0.008 | inactive: -0.021 | inactive: 0.012 | inactive: 0.065 |
| NEMF (UniProt O60524) | inactive: -0.055 | inactive: -0.113 | inactive: -0.59 | inactive: 0.027 | inactive: -0.043 | inactive: -0.014 | inactive: -0.031 | inactive: 0.034 | inactive: 0.01 | inactive: -0.278 |
| NOSIP (UniProt Q9Y314) | inactive: 0.062 | inactive: 0.16 | inactive: 0.049 | inactive: -0.05 | inactive: -0.041 | inactive: 0.039 | inactive: -0.033 | inactive: -0.03 | inactive: -0.234 | inactive: -0.249 |
| NRF1 isoform 4 (UniProt Q16656) | inactive: 0.079 | inactive: 0.012 | inactive: -0.161 | inactive: -0.028 | inactive: 0.053 | inactive: -0.001 | inactive: -0.012 | inactive: -0.116 | inactive: -0.051 | inactive: -0.003 |
| NSFL1C isoform 5 (UniProt Q9UNZ2) | inactive: -0.005 | inactive: 0.03 | inactive: 0.045 | inactive: 0.002 | inactive: 0.019 | inactive: 0.045 | inactive: -0.02 | inactive: -0.012 | inactive: -0.013 | inactive: -0.03 |
| NPM1 (UniProt P06748) | inactive: -0.054 | inactive: -0.202 | inactive: -0.473 | inactive: 0.043 | inactive: -0.231 | inactive: 0.023 | inactive: -0.033 | inactive: -0.023 | inactive: 0.002 | inactive: -0.084 |
| NR2F2 (UniProt P24468) | inactive: 0.013 | inactive: 0.005 | inactive: 0.027 | inactive: 0.005 | inactive: 0.012 | inactive: -0.005 | inactive: -0.05 | inactive: -0.026 | inactive: -0.065 | inactive: 0.02 |
| NSDHL (UniProt Q15738) | inactive: -0.007 | inactive: 0.107 | inactive: 0.047 | inactive: 0.021 | inactive: 0 | inactive: -0.149 | inactive: 0.065 | inactive: 0.059 | inactive: -0.039 | inactive: -0.005 |
| NGLY1 (UniProt Q96IV0) | inactive: 0.035 | inactive: -0.06 | inactive: -0.036 | inactive: -0.014 | inactive: 0.17 | inactive: 0.023 | inactive: -0.001 | inactive: 0.045 | inactive: -0.023 | inactive: -0.024 |
| NME1 isoform 2 (UniProt P15531) | inactive: 0.034 | inactive: -0.015 | inactive: 0.038 | inactive: 0.092 | inactive: 0.063 | inactive: -0.05 | inactive: -0.048 | inactive: -0.001 | inactive: 0.032 | inactive: 0.074 |
| NPLOC4 isoform 2 (UniProt Q8TAT6) | inactive: 0.055 | inactive: -0.026 | inactive: 0.088 | inactive: -0.022 | inactive: 0.011 | inactive: 0.003 | inactive: 0.015 | inactive: 0.024 | inactive: -0.045 | inactive: 0.044 |

Whole records, quoted from the list. Values in the order: log2 fold change [1]	log2 fold change [2]	log2 fold change [3]	log2 fold change [4]	log2 fold change [5]	log2 fold change [6]	log2 fold change [7]	log2 fold change [8]	log2 fold change [9]	log2 fold change [10]
NME1 isoform 2 (UniProt P15531) is entered as inactive: 0.034	inactive: -0.015	inactive: 0.038	inactive: 0.092	inactive: 0.063	inactive: -0.05	inactive: -0.048	inactive: -0.001	inactive: 0.032	inactive: 0.074
NR2F2 (UniProt P24468) is entered as inactive: 0.013	inactive: 0.005	inactive: 0.027	inactive: 0.005	inactive: 0.012	inactive: -0.005	inactive: -0.05	inactive: -0.026	inactive: -0.065	inactive: 0.02
